Values from PubChem BioAssay AID1053208 (Peter MacCallum Cancer Centre, 2014)
In all, the deposit lists about 17,000 reagents; shown is an unselected part. 788 of them (4.7%) count as active. 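Calls rest on z-score classes alone; an extra cut-off of viability at most 70% of control was not applied to them.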 No sequences are given here.

- Assay: 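Find knock-downs that sensitise mouse osteosarcoma cells to doxorubicin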 (primary screen)
- Cell system: mouse osteosarcoma cells, early-passage culture from an engineered mouse model of fibroblastic bone tumour
- Knock-down reagent: siRNA pool against mouse genes, 40 nM
- Time to read-out: about 120 h (48 h before drug, then 72 h with drug)
- Challenge: doxorubicin 100 nM for 72 h, roughly 30-40% inhibitory dose
- Read-out: 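Luminescent ATP signal taken as viability with or without 100 nM doxorubicin for 72 h; mean of two wells set against non-targeting siRNA and turned into robust z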
- Reading the numbers: viability z-score with doxorubicin and doxorubicin viability vs non-targeting: higher = more viable cells under doxorubicin; viability z-score without drug: higher = more viable cells with knock-down alone; z-score of drug to no-drug ratio: higher = less drug sensitisation by knock-down
- Active means: 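Called active if knock-down leaves viability unchanged without drug (z within -2 to 2) but lowers it with doxorubicin (z at or under -2)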

target,combined z-score class,viability z-score with doxorubicin,viability z-score without drug,z-score of drug to no-drug ratio,doxorubicin viability vs non-targeting,Call
Ptprt,no change with or without drug,1.01,0.51,0.79,1.03,inactive
Pcm1,no change with or without drug,0.11,0.51,-0.11,0.95,inactive
Eif5b,low cell count with and without drug,-2.02,-3.54,0.56,0.76,inactive
Ppara,no change with or without drug,-0.34,0.17,-0.34,0.91,inactive
Tagap,no change with or without drug,1.01,-0.67,1.69,1.03,inactive
Chgb,no change with or without drug,1.01,1.18,0.34,1.03,inactive
Taar5,no change with or without drug,-0.22,0.17,-0.22,0.92,inactive
Ifnl3,no change with or without drug,0.9,1.35,0.11,1.02,inactive
Sertad1,high cell count without drug only,1.35,2.19,0,1.06,inactive
Tmod2,no change with or without drug,-0.56,-0.51,-0.11,0.89,inactive
Rprd1a,no change with or without drug,0.79,-0.51,1.35,1.01,inactive
Or5d18,no change with or without drug,-0.56,0.51,-0.79,0.89,inactive
Zfp94,no change with or without drug,1.35,1.52,0.45,1.06,inactive
Mynn,no change with or without drug,0,-0.34,0.34,0.94,inactive
Myl3,no change with or without drug,1.35,0.34,1.24,1.06,inactive
Hccs,no change with or without drug,0.79,0.34,0.67,1.01,inactive
Sdc4,no change with or without drug,-0.79,-0.84,-0.11,0.87,inactive
Itgb1,no change with or without drug,-1.12,-0.84,-0.56,0.84,inactive
Asb3,no change with or without drug,-0.45,-0.17,-0.22,0.9,inactive
Zpr1,no change with or without drug,0.56,-0.67,1.24,0.99,inactive
Def6,no change with or without drug,-1.01,-0.84,-0.45,0.85,inactive
Mast3,no change with or without drug,1.12,0.17,1.12,1.04,inactive
Espn,no change with or without drug,0.67,0.51,0.45,1,inactive
Ints4,no change with or without drug,0.34,-0.51,0.79,0.97,inactive
4931414P19Rik,no change with or without drug,-0.79,1.69,-1.69,0.87,inactive
Comp,no change with or without drug,0,-0.84,0.67,0.94,inactive
Prr3,no change with or without drug,-1.46,0.17,-1.57,0.81,inactive
Golt1b,no change with or without drug,-1.35,0.51,-1.57,0.82,inactive
Tgtp1,high cell count without drug only,0.9,2.19,-0.45,1.02,inactive
Zfyve27,no change with or without drug,-1.12,1.01,-1.69,0.84,inactive
Cst3,high cell count with doxorubicin only,2.25,-0.51,2.92,1.14,inactive
Or11g26,no change with or without drug,-0.45,1.18,-1.12,0.9,inactive
Tmtc1,no change with or without drug,0.22,0.51,0,0.96,inactive
Pigc,no change with or without drug,-1.57,0.34,-1.8,0.8,inactive
Cebpg,no change with or without drug,0.22,1.18,-0.45,0.96,inactive
Tro,no change with or without drug,-1.12,-0.84,-0.56,0.84,inactive
Gphn,no change with or without drug,1.35,-0.84,2.25,1.06,inactive
Fcho1,no change with or without drug,0.67,0.84,0.22,1,inactive
Cd72,no change with or without drug,-1.12,-0.51,-0.79,0.84,inactive
Pkd1,no change with or without drug,0.45,-0.17,0.67,0.98,inactive
Ppil1,no change with or without drug,0.11,-0.51,0.56,0.95,inactive
Cdk2,no change with or without drug,0,-0.84,0.67,0.94,inactive
Daam2,high cell count without drug only,-0.79,2.02,-1.91,0.87,inactive
Lsm5,no change with or without drug,0.22,-0.51,0.67,0.96,inactive
Slc13a2,no change with or without drug,-0.11,0.84,-0.56,0.93,inactive
Gpd1,no change with or without drug,1.57,-0.17,1.91,1.08,inactive
Ch25h,no change with or without drug,-1.24,-0.17,-1.12,0.83,inactive
Atosa,no change with or without drug,0,0.17,0,0.94,inactive
Or4c125,no change with or without drug,0.9,0.51,0.67,1.02,inactive
Srrm4,no change with or without drug,-1.46,-0.17,-1.35,0.81,inactive
